According to article PMC9007350, “Aurintricarboxylic acid is a canonical disruptor of the TAZ-TEAD transcriptional complex” (PLoS ONE, 2022):
The source gives many values for each of these; only a part stands here.

Test system: TC/TEAD transcriptional profile in TC-expressing NIH3T3 cells
Test: Bulk RNA-Seq, differential gene expression and GSEA (TC ATA v. TC DMSO)
Type: cell-based, murine
Settings: TC ATA v. TC DMSO
Protocol: NIH3T3 and HEK293 cells were obtained from the American Type Tissue Collection (ATCC, Manassas, VA) and cultured in DMEM containing 10% fetal bovine serum and penicillin/streptomycin. A TEAD dual luciferase reporter assay was performed as previously described. Cells were treated with vehicle control or ATA (10 μM) for 48 h before measuring the luciferase activity or processing the samples for RNA extraction. Each experiment was repeated at least 2-3 times. NIH3T3 cells were used. The extracted RNA (RNeasy Mini, Qiagen) from treated cells was either used for qPCR measurements or sent for bulk RNA-Seq. Sequencing runs were performed on an Illumina HiSeq 4000 sequencer (Genewiz). Subsequent bioinformatics analysis was performed in the Galaxy Project platform. Paired end reads were aligned to the murine genome ([…]2 [27]. Raw count files were generated with featureCounts using a corresponding GTF reference. Differential gene expression analysis was performed with DESeq2 [29]. Transcripts were considered to be differentially expressed if the false discovery rate < 0.05 and Log2FC > 2. When performing differential gene expression for GSEA analysis, the Limma package was used (<5 CPM filtering) with t-scores used for rank statistics. GSEA plots and statistics were generated with FGSEA with custom gene sets. Raw sequencing reads and processed files have been deposited in the GEO repository (data will be uploaded upon manuscript acceptance). The Universal Probe Library probes (Roche) and the associated primer sequences for the qPCR targets are listed below: […]

SMILES: O=C(O)C1=CC(=C(c2ccc(O)c(C(=O)O)c2)c2ccc(O)c(C(=O)O)c2)C=CC1=O [ATA, aurintricarboxylic acid]
- Log2 Fold Change (gene Myo1d): 0.4365
- Log2 Fold Change (gene Myom1): 0.4774
- Log2 Fold Change (gene Myom2): 0.6897
- Log2 Fold Change (gene Myot): 0.6711
- Log2 Fold Change (gene Myoz1): 0.4602
- Log2 Fold Change (gene Naalad2): 0.3473
- Log2 Fold Change (gene Narf): 0.3076
- Log2 Fold Change (gene Nav3): -0.4529
- Log2 Fold Change (gene Ncl): -0.2268
- Log2 Fold Change (gene Ndrg2): 0.5584
- Log2 Fold Change (gene Neb): 0.527
- Log2 Fold Change (gene Nefl): -0.9955
- Log2 Fold Change (gene Nfatc4): 0.4876
- Log2 Fold Change (gene Ngef): -0.6115
- Log2 Fold Change (gene Nmrk2): 1.13
- Log2 Fold Change (gene Nop2): -0.2237
- Log2 Fold Change (gene Npr3): -0.5907
- Log2 Fold Change (gene Nptx1): -0.9075
- Log2 Fold Change (gene Npy4r): 1.064
- Log2 Fold Change (gene Nr1d1): -0.4085
- Log2 Fold Change (gene Nr3c1): 0.1846
- Log2 Fold Change (gene Nrap): 0.7596
- Log2 Fold Change (gene Nrp1): 0.3215
- Log2 Fold Change (gene Nrp2): 0.2717
- Log2 Fold Change (gene Nsd2): -0.2184
- Log2 Fold Change (gene Nsg1): 0.3567
- Log2 Fold Change (gene Nuak1): 0.3648
- Log2 Fold Change (gene Nudt13): 0.4054
- Log2 Fold Change (gene Obscn): 0.5684
- Log2 Fold Change (gene Ogn): 0.2982
- Log2 Fold Change (gene Olfm1): 0.9598
- Log2 Fold Change (gene Opcml): 0.5527
- Log2 Fold Change (gene Pa2g4): -0.2052
- Log2 Fold Change (gene Pabpc1): -0.1899
- Log2 Fold Change (gene Pabpc4): -0.2396
- Log2 Fold Change (gene Pam): 0.1995
- Log2 Fold Change (gene Pank1): 0.26
- Log2 Fold Change (gene Pard6a): 0.4107
- Log2 Fold Change (gene Pard6b): -0.3681
- Log2 Fold Change (gene Parvb): -0.25
- Log2 Fold Change (gene Pbx1): 0.2753
- Log2 Fold Change (gene Pbxip1): 0.3979
- Log2 Fold Change (gene Pcdhb17): 0.5008
- Log2 Fold Change (gene Pde4b): 0.6662
- Log2 Fold Change (gene Pdk2): 0.4769
- Log2 Fold Change (gene Pdk4): 0.6028
- Log2 Fold Change (gene Pdzrn3): 0.3648
- Log2 Fold Change (gene Peg10): -1.135
- Log2 Fold Change (gene Peli2): 0.4464
- Log2 Fold Change (gene Phc2): -0.2212
- Log2 Fold Change (gene Phyh): 0.5623
- Log2 Fold Change (gene Pik3r3): 0.5572
- Log2 Fold Change (gene Pim1): -0.2398
- Log2 Fold Change (gene Pimreg): -0.2047
- Log2 Fold Change (gene Pink1): 0.4263
- Log2 Fold Change (gene Pitpnc1): -0.3043
- Log2 Fold Change (gene Pkd1): 0.2069
- Log2 Fold Change (gene Pla2r1): 0.5567
- Log2 Fold Change (gene Plat): 0.2454
- Log2 Fold Change (gene Plb1): 0.8804
- Log2 Fold Change (gene Plcxd2): -0.4823
- Log2 Fold Change (gene Pld1): 0.3467
- Log2 Fold Change (gene Plk3): -0.2486
- Log2 Fold Change (gene Pltp): 0.4949
- Log2 Fold Change (gene Pmp22): 0.5989
- Log2 Fold Change (gene Polr3g): -0.3438
- Log2 Fold Change (gene Pop1): -0.2432
- Log2 Fold Change (gene Postn): 0.5184
- Log2 Fold Change (gene Ppif): -0.3644
- Log2 Fold Change (gene Prelp): 1.192
- Log2 Fold Change (gene Prex2): 0.4012
- Log2 Fold Change (gene Prkg1): 0.7933
- Log2 Fold Change (gene Prl2c2): 0.4598
- Log2 Fold Change (gene Prl2c5): 0.8033
- Log2 Fold Change (gene Prr5): -0.3446
- Log2 Fold Change (gene Prss35): 1.498
- Log2 Fold Change (gene Psap): 0.2467
- Log2 Fold Change (gene Ptgds): 1.363
- Log2 Fold Change (gene Ptger4): 0.3998
- Log2 Fold Change (gene Ptn): 1.096
- Log2 Fold Change (gene Ptp4a3): 0.4113
- Log2 Fold Change (gene Ptpre): -0.626
- Log2 Fold Change (gene Ptx3): 1.487
- Log2 Fold Change (gene Pxn): -0.3025
- Log2 Fold Change (gene Pxylp1): 0.5078
- Log2 Fold Change (gene Pygo1): 0.3537
- Log2 Fold Change (gene Ralgds): 0.2485
- Log2 Fold Change (gene Raph1): -0.2233
- Log2 Fold Change (gene Rars): -0.3235
- Log2 Fold Change (gene Rasl11a): 0.7443
- Log2 Fold Change (gene Rassf1): -0.3536
- Log2 Fold Change (gene Rassf2): 0.4223
- Log2 Fold Change (gene Rbm38): -0.3121
- Log2 Fold Change (gene Rcc1): -0.2649
- Log2 Fold Change (gene Rcl1): -0.2404
- Log2 Fold Change (gene Reck): 0.3051
- Log2 Fold Change (gene Rgmb): -0.3672
- Log2 Fold Change (gene Rgs16): -1.167
- Log2 Fold Change (gene Rnase4): 0.2281
- Log2 Fold Change (gene Rnf13): 0.2512
- Log2 Fold Change (gene Rnf24): 0.2255
- Log2 Fold Change (gene Rnf157): 0.293
- Log2 Fold Change (gene Rnft1): 0.2266
- Log2 Fold Change (gene Rps2-ps5): 0.5433
- Log2 Fold Change (gene Rps27a-ps2): 0.3469
- Log2 Fold Change (gene Rrp1b): -0.2689
- Log2 Fold Change (gene Rrp9): -0.2842
- Log2 Fold Change (gene Rufy1): -0.263
- Log2 Fold Change (gene Ryr1): 0.3443
- Log2 Fold Change (gene S100a7a): -0.8309
- Log2 Fold Change (gene Sacs): -0.3663
- Log2 Fold Change (gene Sardh): 0.4627
